# In US20090170765A1:
# Results are given in words; binding and its absence hold for the method and conditions named. Binding seen in cells or lysates may run through a third protein. Some binding calls cover weakened binding; strength is not graded here.
# Experiments:
# importin β1 [1] = target: importin β1 (UniProt Q14974); assay: co-immunoprecipitation from transfected HeLa cells, GFP antibody, detection with importin β1 antibody
# importin β1 [2] = target: importin β1 (UniProt Q14974); assay: co-immunoprecipitation from transfected HeLa cells
binding (importin β1 [1]),binding (importin β1 [2]),Substance
binds,,GFP-NLS fusion protein (GFP fused to the CnAβ 171-190 fragment) (from UniProt P16298 171-190)
binds,binds,"GFP-tagged full length calcineurin Aβ (CnAβ(full), amino acids 1-524) (from UniProt P16298 1-524) (enzyme)"
